# Data taken from article PMC7408493 (Biomolecules, 2020).
# HELM strings list residues between dots; [ac] is acetyl, [am] amide, other brackets name non-standard units.
# Assay: peptide made by a vendor
# Conditions: whole synthesis
substance,measurement,value
PEPTIDE1{A.V.F.Q.H.N.C.Q.E}$$$$V2.0,purity (crude or final not stated),98.94%
